Experimental data taken from the supplement of paper PMC12819154, “High-throughput peptide-centric local stability assay extends protein–ligand identification to membrane proteins, tissues and bacteria” (Nature Structural & Molecular Biology, 2025).
This is one part of the list. Most entries show no effect beyond the scatter of the controls.

The chains behind the UniProt entries cited, without tags or fusion partners. Where a name states a change or a piece, a line headed by the entry shows the natural chain unless it says otherwise.
UniProt P04186, whole entry: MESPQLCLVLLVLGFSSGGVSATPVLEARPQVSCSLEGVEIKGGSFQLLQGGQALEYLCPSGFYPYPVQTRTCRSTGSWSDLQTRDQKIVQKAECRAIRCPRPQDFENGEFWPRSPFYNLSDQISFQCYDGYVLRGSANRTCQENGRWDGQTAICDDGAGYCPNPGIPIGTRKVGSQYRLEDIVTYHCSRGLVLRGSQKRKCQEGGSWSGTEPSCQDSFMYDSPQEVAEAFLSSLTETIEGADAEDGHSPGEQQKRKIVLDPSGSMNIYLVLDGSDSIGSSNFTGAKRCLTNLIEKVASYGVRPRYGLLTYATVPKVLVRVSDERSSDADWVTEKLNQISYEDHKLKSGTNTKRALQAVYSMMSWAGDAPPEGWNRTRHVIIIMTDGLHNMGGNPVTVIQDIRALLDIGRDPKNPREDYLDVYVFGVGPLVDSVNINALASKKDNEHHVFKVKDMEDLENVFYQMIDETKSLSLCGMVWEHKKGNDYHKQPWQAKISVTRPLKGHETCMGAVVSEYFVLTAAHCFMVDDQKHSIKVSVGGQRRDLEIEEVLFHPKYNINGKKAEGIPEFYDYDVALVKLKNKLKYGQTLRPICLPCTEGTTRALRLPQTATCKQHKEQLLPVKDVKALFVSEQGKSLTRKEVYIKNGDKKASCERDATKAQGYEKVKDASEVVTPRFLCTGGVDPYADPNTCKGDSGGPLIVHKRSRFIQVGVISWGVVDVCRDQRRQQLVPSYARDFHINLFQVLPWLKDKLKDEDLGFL
UniProt P08607: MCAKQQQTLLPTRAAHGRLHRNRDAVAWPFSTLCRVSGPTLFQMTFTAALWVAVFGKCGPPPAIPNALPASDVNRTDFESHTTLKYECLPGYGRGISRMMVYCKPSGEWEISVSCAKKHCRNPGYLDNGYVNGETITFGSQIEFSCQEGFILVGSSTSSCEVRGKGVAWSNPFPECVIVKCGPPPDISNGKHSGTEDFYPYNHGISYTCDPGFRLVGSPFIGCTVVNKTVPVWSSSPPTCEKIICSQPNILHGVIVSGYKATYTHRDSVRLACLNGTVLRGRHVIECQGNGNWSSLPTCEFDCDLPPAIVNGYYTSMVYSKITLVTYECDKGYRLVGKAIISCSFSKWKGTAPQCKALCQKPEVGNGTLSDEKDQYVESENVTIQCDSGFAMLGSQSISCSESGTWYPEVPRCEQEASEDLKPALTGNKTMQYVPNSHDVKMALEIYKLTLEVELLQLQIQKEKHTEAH
UniProt P27784: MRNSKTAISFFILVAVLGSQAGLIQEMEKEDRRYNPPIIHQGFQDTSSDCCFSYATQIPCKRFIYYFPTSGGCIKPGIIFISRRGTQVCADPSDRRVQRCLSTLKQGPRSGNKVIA
UniProt P09528, whole entry: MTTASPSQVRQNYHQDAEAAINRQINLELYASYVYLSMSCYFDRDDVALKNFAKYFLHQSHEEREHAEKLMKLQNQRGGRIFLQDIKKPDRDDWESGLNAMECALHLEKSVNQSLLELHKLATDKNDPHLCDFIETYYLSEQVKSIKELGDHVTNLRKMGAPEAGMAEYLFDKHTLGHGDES
UniProt P14824: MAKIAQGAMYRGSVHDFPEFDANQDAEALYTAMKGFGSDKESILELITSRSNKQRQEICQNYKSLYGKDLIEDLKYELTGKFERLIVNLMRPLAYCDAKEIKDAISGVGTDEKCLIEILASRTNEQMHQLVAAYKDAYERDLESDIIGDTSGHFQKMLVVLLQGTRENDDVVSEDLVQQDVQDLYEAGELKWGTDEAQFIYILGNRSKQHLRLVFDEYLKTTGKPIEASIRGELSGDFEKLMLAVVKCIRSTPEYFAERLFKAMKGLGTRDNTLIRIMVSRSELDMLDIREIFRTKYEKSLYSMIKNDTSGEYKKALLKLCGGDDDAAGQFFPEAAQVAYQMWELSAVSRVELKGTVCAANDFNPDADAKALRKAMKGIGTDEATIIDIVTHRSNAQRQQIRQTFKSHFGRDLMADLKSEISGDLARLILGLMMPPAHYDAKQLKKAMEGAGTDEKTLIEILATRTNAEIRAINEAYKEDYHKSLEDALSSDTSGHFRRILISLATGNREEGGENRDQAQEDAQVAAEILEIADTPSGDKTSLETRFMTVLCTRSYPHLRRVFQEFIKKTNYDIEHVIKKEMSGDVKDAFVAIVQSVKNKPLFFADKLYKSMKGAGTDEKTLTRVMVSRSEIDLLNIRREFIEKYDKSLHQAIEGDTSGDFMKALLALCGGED
UniProt P25688: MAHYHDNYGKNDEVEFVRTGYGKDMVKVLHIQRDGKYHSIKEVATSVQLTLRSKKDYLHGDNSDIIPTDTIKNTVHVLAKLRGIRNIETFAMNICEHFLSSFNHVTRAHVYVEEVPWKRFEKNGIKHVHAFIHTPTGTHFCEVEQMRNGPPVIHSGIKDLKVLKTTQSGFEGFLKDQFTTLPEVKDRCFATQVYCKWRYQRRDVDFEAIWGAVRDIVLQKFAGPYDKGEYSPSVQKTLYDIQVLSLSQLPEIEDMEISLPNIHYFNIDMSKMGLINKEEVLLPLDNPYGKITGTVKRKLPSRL
UniProt P15535: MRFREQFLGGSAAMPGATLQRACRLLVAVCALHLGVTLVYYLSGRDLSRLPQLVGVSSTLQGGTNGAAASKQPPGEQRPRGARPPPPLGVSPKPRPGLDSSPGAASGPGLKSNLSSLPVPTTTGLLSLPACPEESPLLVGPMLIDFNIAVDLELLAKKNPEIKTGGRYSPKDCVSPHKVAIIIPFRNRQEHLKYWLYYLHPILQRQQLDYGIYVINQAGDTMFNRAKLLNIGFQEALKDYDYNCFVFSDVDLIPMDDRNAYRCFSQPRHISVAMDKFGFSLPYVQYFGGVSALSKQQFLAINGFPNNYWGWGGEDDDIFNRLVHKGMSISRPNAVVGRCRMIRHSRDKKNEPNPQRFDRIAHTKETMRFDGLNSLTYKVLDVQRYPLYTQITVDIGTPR
UniProt P22599: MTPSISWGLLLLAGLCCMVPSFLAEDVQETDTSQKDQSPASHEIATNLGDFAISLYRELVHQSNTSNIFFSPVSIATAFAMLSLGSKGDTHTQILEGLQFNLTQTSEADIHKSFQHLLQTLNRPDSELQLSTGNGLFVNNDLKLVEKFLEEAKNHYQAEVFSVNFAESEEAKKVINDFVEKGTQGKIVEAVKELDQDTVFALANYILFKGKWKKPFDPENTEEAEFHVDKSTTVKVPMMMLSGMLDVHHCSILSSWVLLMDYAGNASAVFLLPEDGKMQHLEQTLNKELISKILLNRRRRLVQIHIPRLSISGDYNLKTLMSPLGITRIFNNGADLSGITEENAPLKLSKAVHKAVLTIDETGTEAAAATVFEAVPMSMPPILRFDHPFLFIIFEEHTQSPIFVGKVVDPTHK
UniProt P24369: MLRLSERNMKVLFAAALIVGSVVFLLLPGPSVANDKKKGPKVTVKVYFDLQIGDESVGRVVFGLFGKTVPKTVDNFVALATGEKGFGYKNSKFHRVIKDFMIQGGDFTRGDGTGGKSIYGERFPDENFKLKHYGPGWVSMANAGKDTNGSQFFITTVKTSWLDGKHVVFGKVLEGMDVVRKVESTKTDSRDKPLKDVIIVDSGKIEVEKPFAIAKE
UniProt P23953: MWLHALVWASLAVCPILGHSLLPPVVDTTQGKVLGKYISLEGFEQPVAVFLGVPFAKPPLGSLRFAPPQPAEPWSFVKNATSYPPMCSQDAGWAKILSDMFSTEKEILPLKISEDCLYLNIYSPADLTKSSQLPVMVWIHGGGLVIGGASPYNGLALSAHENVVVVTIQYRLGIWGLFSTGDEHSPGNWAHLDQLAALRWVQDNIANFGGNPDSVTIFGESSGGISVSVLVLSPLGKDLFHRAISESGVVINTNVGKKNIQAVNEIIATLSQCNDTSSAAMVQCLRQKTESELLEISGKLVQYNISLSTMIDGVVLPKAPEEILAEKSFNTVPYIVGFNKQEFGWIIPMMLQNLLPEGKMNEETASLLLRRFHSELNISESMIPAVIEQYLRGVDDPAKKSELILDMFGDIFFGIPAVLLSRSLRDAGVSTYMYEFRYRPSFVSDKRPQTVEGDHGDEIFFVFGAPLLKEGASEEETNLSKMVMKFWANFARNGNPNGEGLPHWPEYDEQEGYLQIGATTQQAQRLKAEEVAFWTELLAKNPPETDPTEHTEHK
UniProt P07759: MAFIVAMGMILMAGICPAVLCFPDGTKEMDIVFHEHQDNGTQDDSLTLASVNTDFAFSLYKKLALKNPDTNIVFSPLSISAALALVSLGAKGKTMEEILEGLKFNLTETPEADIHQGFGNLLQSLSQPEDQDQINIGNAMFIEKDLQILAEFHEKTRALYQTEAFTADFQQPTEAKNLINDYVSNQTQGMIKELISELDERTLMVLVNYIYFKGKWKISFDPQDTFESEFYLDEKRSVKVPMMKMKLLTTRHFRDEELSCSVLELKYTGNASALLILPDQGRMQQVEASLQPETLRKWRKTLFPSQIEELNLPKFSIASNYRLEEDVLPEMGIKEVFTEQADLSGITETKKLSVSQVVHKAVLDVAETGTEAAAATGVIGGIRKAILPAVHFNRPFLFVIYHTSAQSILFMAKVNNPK
UniProt P16301: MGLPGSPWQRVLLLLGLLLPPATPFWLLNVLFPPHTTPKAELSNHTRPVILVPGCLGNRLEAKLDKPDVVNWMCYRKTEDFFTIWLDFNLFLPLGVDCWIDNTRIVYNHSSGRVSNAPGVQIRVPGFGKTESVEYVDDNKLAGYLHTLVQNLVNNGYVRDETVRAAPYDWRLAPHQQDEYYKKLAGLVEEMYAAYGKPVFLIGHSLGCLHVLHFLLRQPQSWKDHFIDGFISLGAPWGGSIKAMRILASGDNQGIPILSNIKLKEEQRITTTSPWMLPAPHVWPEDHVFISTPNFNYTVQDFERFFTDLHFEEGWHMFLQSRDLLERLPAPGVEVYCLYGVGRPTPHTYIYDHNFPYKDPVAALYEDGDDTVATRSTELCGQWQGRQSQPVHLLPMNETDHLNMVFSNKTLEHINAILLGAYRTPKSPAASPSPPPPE
UniProt P20029: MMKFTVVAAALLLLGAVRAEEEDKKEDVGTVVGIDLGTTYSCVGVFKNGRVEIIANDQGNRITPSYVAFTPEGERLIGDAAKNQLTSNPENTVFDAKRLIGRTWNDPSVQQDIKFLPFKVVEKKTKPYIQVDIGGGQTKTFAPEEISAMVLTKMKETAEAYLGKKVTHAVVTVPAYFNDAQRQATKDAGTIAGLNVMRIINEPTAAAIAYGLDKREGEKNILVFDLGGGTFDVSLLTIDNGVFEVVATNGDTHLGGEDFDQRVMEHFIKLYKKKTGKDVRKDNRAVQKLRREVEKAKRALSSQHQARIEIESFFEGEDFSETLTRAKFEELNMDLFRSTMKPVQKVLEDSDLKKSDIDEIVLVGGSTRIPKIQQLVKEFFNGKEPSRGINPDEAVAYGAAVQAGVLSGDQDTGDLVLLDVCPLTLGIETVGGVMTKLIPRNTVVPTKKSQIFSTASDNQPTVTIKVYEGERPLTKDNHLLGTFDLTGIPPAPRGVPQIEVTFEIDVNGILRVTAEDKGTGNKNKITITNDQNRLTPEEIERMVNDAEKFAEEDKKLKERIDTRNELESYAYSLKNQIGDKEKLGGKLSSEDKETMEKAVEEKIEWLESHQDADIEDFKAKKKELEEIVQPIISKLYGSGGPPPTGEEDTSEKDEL
UniProt P14211: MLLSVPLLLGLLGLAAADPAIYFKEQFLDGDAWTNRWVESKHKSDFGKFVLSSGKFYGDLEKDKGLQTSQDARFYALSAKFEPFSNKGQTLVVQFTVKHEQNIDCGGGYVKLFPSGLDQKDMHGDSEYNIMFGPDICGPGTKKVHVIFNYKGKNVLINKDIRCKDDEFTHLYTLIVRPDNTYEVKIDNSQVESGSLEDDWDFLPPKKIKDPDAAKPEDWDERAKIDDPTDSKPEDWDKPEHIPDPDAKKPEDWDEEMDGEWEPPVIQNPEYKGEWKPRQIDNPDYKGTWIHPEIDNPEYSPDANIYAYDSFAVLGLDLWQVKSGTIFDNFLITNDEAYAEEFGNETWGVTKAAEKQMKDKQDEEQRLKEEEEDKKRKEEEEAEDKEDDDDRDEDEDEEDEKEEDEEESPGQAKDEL
UniProt P14576: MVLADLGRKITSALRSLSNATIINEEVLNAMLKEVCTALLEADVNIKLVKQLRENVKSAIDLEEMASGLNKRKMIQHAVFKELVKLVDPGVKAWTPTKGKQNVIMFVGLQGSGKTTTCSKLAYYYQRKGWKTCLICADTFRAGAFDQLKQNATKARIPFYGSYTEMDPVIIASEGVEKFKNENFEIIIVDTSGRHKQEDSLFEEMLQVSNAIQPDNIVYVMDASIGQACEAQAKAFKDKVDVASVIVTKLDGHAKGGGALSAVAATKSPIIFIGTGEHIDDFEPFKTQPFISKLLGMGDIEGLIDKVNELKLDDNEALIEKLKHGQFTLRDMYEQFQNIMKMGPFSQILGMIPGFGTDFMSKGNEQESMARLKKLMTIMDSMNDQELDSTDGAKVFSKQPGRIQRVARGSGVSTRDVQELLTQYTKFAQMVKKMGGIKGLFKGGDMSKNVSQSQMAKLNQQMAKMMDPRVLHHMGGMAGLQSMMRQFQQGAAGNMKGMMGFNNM

Compound: CN[C@@H]1C[C@H]2O[C@@](C)([C@@H]1OC)n1c3ccccc3c3c4c(c5c6ccccc6n2c5c31)C(=O)NC4 [staurosporine]
Test: log2 fold change of pooled soluble protein (PISA), ligand vs vehicle (log2 ratio); higher = more thermally stabilized
Conditions: ligand concentration: 20 uM; assay format: PISA pool 52.9/55.5/58.6 C

Target	log2 fold change of pooled soluble protein
UniProt P24527	-0.0254
UniProt P13020	-0.121
UniProt P04186	-0.0043
UniProt P08607	0.0501
UniProt P27784	0.159
UniProt P18581	0.0638
UniProt P09528	-0.16
UniProt P26040	0.00785
UniProt P13597	-0.00163
UniProt P14824	-0.0642
UniProt P25688	-0.175
UniProt P07309	-0.273
UniProt P15535	-0.0242
UniProt P14094	0.088
UniProt P13439	-0.18
UniProt P22599	0.0282
UniProt P08122	-0.184
UniProt P24369	-0.116
UniProt P24547	-0.0592

Target	log2 fold change of pooled soluble protein
UniProt P11087	0.044
UniProt P06797	0.351
UniProt P23953	-0.00684
UniProt P07759	0.0817
UniProt P15208	0.0944
UniProt P16301	0.0901
UniProt P08752	0.162
UniProt P07310	-0.129
UniProt P17047	-0.0253
UniProt P20029	-0.0067
UniProt P21460	0.236
UniProt P16332	-0.0578
UniProt P12970	-0.0755
UniProt P12710	-0.155
UniProt P14211	0.0758
UniProt P09405	-0.00866
UniProt P14576	-0.191
UniProt P10648	0.119
